Assay results published in the supplement of paper PMC12889115.
This is one part of the list. Values are raw readings; no control value is given beside them.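 Primary screen: polymyxin B was added at a level permeabilizing Salmonella outer membranes while sparing inner membranes. DMSO wells, both with and without polymyxin B, established maximum growth. Plate-to-plate variation meant each plate was ranked on its own, and the lowest-OD600 compounds were selected as hits.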

Test system: Salmonella enterica serovar Typhimurium SL1344
Assay: bacterial growth OD600 after 18 h with compound and polymyxin B; higher = more bacterial growth (less inhibition)
Settings: 50 µM, Mueller-Hinton broth

| SMILES | bacterial growth OD600 (polymyxin B 1 µg/mL) | bacterial growth OD600 (polymyxin B 0.75 µg/mL) |
| --- | --- | --- |
| COC(=O)CCC(=O)N1CCCC(C(=O)c2ccc(-c3ccccc3)c(F)c2)C1 (stereo unspecified) | 0.127 |  |
| CCn1ncc(CNC2CC(=O)N(Cc3cccc(F)c3)C2)c1C (stereo unspecified) | 1.04 |  |
| CC(C)(C)C(=O)Nc1ccnn1C1CCN(C(=O)CCC(=O)c2ccccc2)CC1 | 1.06 |  |
| COc1cc(CN2Cc3cc(Cl)ccc3OC(C)C2)cc(OC)c1O (stereo unspecified) |  | 0.826 |
| Cc1ncc(CNCc2cccnc2N2CCCCCCC2)n1C |  | 0.823 |
| O=C(CC1(c2ccccc2)CC(=O)N(Cc2ccncc2)C1=O)N(Cc1ccccc1)CC1CC1 (stereo unspecified) |  | -0.003 |
| O=C(c1ccccc1OC1CCN(Cc2cccc(F)c2F)CC1)N1CCCC1 | 0.931 |  |
| CCCc1cc(CNC(=O)c2ccc(N3CCC4(CCN(CC)C4)C3)nc2)on1 (stereo unspecified) | 0.984 |  |
| Cn1nccc1C(=O)NC1CCCN(C2CCCCCC2)C1 (stereo unspecified) | 0.9 |  |
| C=CCN(CC=C)C(=O)CC1C(=O)NCCN1Cc1ccc(C)cc1 (stereo unspecified) | 0.972 |  |
| CC(C)CN1CCC(CN(C)C(=O)c2cc(COc3ccc4ncccc4c3)on2)C1 (stereo unspecified) |  | 0.884 |
| CC(=O)N[C@@H]1c2ccccc2C2(CCN(C(=O)c3cccc(F)c3F)CC2)[C@H]1OCc1ccccc1 |  | 0.688 |
| CC(C)(C)NC(=O)c1coc(COc2ccc(F)cc2Cl)n1 | 0.863 |  |
| COc1ccc(CN2CCC(O)(Cc3cc(-c4ccccc4)no3)CC2)cc1C | 0.794 |  |
| Cc1ccc(CN2CCC(N3CCCC(C(=O)NC4CC4)C3)CC2)cc1C (stereo unspecified) |  | 0.817 |
| Cc1ccc(-c2n[nH]cc2CNCc2cccc(OC(F)(F)F)c2)cc1C | 0.667 |  |
| FC(F)(F)c1ccccc1CCNc1nncc(-c2ccccc2)n1 | 0.991 |  |
| CN(C)c1ncccc1CNC(=O)C1CCOC1 (stereo unspecified) | 0.755 |  |
| CC(C)CCN1CCC(N2CCC(C(=O)NCc3cccnc3)CC2)CC1 | 0.941 |  |
| Cc1cccc(OC2CCN(C(=O)c3cn(Cc4ccccc4C)nn3)CC2)c1 | 0.585 |  |
| Cc1cc2c(cc1CNC1CC(=O)N(CCCc3ccccc3)C1)OCO2 (stereo unspecified) | 0.927 |  |

Single entries from the entries so far:
CC(C)CN1CCC(CN(C)C(=O)c2cc(COc3ccc4ncccc4c3)on2)C1 (stereo unspecified) – bacterial growth OD600 (polymyxin B 0.75 µg/mL): 0.884
O=C(c1ccccc1OC1CCN(Cc2cccc(F)c2F)CC1)N1CCCC1 – bacterial growth OD600 (polymyxin B 1 µg/mL): 0.931
